# The shares of active, inactive and inconclusive entries below differ from those in the screen. Potencies beside an inconclusive call are fits to weak or partial responses and may not hold up. Calls of active or inactive are those of the source. Calls come from the whole dose curve; as a rule, active = well fitted inhibition curve with a large enough effect; inconclusive = small, poorly fitted or top-dose-only effect; inactive = no such curve, though single readings can be large or run the other way.
# The chains behind the UniProt entries cited, without tags or fusion partners. Where a name states a change or a piece, a line headed by the entry shows the natural chain unless it says otherwise.
# UniProt P54132: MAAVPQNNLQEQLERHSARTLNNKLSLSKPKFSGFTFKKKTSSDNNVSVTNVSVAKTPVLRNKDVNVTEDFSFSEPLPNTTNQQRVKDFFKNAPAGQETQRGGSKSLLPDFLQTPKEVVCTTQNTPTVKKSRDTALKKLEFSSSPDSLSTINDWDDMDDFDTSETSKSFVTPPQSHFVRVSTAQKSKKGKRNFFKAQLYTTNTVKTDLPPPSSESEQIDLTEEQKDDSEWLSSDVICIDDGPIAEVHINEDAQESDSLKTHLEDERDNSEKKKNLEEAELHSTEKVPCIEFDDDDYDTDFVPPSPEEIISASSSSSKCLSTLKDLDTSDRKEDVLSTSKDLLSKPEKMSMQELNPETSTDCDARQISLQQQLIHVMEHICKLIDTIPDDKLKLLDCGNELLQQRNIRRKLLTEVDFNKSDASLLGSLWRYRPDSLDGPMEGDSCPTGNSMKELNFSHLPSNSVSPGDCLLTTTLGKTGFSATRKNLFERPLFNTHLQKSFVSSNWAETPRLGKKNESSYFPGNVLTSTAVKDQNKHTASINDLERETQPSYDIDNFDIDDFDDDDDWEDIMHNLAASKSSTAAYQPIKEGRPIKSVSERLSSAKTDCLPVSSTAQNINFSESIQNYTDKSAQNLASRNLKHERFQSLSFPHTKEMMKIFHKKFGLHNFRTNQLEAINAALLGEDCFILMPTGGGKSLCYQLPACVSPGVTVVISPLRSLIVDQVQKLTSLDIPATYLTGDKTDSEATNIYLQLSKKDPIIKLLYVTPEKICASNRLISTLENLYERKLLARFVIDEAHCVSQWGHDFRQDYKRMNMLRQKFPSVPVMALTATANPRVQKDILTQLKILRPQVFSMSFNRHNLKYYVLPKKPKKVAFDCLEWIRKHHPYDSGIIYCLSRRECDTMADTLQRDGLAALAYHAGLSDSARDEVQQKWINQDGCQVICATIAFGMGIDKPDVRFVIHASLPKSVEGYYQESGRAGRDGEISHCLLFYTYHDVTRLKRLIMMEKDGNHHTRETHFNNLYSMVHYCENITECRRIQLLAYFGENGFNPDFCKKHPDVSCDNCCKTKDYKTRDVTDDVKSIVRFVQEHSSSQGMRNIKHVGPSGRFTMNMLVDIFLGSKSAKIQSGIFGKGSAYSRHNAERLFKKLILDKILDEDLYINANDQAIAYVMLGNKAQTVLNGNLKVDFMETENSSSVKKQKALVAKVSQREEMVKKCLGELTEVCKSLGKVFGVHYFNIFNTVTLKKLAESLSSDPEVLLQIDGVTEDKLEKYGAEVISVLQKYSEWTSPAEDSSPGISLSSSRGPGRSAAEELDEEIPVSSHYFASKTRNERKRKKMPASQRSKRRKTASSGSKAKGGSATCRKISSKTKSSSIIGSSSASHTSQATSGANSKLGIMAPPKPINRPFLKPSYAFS
# Target: RecQ-like DNA helicase BLM (Homo sapiens) (UniProt P54132)
# Assay: qHTS for Inhibitors of Bloom's syndrome helicase (BLM): Helicase DNA unwinding fluorescent orthogonal confirmatory assay for SAR
# Conditions: fluorescence, orthogonal confirmation; series mostly up to 55.6 µM; activity change, negative = inhibition: at the top concentration
# Summary of the method: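 Purified BLM unwound a fluorescently labelled DNA substrate at room temperature in pH 7.5 Tris buffer with 2mM ATP and 2mM MgCl2. Products were resolved on native 15% gels. Loss of single-stranded product band, normalised to no-inhibitor and no-enzyme controls, indicates inhibition.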
SMILES,"activity change, negative = inhibition",Potency
O=C(Nc1ccc2ccccc2c1)Nc1nnc(-c2ccc(O)cc2)s1,inactive: 2.72%,
COc1ccc(-c2nnc(NC(=O)Nc3ccc4ccccc4c3)s2)cc1OC,inactive: -6.42%,
O=C(Nc1ccc(Cl)c(Cl)c1)Nc1nnc(-c2ccc(F)cc2)s1,,"inconclusive: 28.2 µM [inhibitor, single point]"
Nc1ccc(-c2nnc(NC(=O)Nc3ccc(Cl)c(Cl)c3)s2)cc1,,"inconclusive: 25.1 µM [inhibitor, partial curve]"
O=C(Nc1ccc(-c2nc3ccccc3[nH]2)cc1)Nc1ccc2c(c1)OCCO2,inactive: -0.67%,
O=c1c(Nc2ccc(F)c(C(F)(F)F)c2)c(Nc2nnc(-c3ccncc3)s2)c1=O,,"inconclusive: 11.2 µM [inhibitor, partial curve, poor fit]"
O=C(Nc1ccc(-n2cncn2)c(C(F)(F)F)c1)Nc1nnc(-c2ccncc2)s1,,"inconclusive: 35.5 µM [inhibitor, single point]"
Fc1ccc(NC(=S)Nc2nnc(-c3ccncc3)s2)cc1C(F)(F)F,,"inconclusive: 39.8 µM [inhibitor, single point]"
N#Cc1cc(NC(=O)Nc2cccc(-c3ccncc3)n2)ccc1Cl,,active: 0.631 µM
Nc1ccc(NC(=O)Nc2nnc(-c3ccncc3)s2)cc1C(F)(F)F,,"inconclusive: 39.8 µM [inhibitor, single point]"
O=C(Nc1ccc(Oc2ccccc2)cc1)Nc1nnc(-c2ccncc2)s1,,"inconclusive: 35.5 µM [inhibitor, partial curve]"
O=C(Nc1ccc2c(c1)CCC2)Nc1nnc(-c2ccncc2)s1,,"inconclusive: 39.8 µM [inhibitor, single point]"
O=C(Nc1ccc(Cl)c([N+](=O)[O-])c1)Nc1cccc(-c2ccncc2)n1,,active: 2.82 µM

# Arranged by heavy-atom count (descending): part of the list above.
SMILES,"activity change, negative = inhibition",Potency
O=c1c(Nc2ccc(F)c(C(F)(F)F)c2)c(Nc2nnc(-c3ccncc3)s2)c1=O,,"inconclusive: 11.2 µM [inhibitor, partial curve, poor fit]"
COc1ccc(-c2nnc(NC(=O)Nc3ccc4ccccc4c3)s2)cc1OC,inactive: -6.42%,
Nc1ccc(-c2nnc(NC(=O)Nc3ccc(Cl)c(Cl)c3)s2)cc1,,"inconclusive: 25.1 µM [inhibitor, partial curve]"

# — PubChem BioAssay AID720555 (National Center for Advancing Translational Sciences (NCATS), 2013)
